The list shows a part of the results.
What was measured:
Assay in all cases: log2 fold change, soluble protein after heating vs DMSO (PISA); higher = thermal stabilisation; K562 cells, 10 uM, 30 min; active = over 0.2 and 3.5 SD of the protein, either way, in both replicates (recomputed)
[1] = compound: CC1=C(C=C(C=C1)NC(=O)C2=CC(=CC=C2)C(C)(C)C#N)NC3=CC4=C(C=C3)N=CN(C4=O)C
How it was run: (§1)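 Values are thermal stability changes relative to control samples and are taken from duplicates. They are stated as log2 fold changes. Before quantification by TMTpro 16plex LC-MS/MS with equalised channel sums, K562 cells at 2×10^6 cells/mL were treated with 10 μM compound for 30 min, heated in aliquots for 3 min across 48°C-58°C, pooled, extracted in PBS with 0.5% NP-40 at 4°C, and centrifuged at 21,000xg for 90 min to give the soluble supernatant.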

Sequences of proteins named here, by UniProt entry; tags and fusion partners are left off. A change or cut given only in a name is not applied to a line headed by its entry.
UniProt Q9UHD9, whole entry, looked up: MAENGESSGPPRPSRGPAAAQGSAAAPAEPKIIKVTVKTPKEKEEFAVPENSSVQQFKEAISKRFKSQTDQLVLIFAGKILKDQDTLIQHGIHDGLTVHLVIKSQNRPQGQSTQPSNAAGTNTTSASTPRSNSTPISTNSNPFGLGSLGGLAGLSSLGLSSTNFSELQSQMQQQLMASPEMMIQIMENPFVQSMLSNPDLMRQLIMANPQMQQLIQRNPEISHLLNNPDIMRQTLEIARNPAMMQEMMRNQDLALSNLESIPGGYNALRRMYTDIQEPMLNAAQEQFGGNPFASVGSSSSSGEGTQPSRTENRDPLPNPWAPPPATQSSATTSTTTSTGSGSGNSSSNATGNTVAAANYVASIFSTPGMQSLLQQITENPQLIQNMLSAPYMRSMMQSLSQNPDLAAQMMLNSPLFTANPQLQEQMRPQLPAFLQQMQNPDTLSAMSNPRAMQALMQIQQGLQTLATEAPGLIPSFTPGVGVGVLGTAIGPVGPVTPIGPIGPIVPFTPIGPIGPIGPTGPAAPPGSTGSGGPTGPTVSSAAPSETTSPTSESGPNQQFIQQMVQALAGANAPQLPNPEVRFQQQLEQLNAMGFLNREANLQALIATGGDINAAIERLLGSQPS
UniProt Q9P0L0: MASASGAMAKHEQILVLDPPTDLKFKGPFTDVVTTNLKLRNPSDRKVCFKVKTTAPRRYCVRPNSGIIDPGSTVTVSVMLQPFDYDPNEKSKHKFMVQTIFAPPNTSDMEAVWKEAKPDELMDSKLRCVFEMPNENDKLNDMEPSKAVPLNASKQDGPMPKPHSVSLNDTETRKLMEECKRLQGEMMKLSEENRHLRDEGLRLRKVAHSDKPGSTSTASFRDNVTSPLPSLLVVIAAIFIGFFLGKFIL
UniProt Q7Z6J8: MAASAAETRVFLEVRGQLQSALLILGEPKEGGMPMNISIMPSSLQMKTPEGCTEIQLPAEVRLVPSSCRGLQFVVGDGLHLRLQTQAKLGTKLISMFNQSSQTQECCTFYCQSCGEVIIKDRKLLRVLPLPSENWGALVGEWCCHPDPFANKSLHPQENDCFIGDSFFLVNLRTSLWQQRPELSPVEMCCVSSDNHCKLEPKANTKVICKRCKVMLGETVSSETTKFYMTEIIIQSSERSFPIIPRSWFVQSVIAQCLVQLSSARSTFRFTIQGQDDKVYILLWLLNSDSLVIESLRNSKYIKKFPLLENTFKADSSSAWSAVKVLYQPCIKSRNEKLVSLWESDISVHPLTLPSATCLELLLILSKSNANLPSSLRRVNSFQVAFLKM
UniProt Q9NRR5, whole entry, looked up: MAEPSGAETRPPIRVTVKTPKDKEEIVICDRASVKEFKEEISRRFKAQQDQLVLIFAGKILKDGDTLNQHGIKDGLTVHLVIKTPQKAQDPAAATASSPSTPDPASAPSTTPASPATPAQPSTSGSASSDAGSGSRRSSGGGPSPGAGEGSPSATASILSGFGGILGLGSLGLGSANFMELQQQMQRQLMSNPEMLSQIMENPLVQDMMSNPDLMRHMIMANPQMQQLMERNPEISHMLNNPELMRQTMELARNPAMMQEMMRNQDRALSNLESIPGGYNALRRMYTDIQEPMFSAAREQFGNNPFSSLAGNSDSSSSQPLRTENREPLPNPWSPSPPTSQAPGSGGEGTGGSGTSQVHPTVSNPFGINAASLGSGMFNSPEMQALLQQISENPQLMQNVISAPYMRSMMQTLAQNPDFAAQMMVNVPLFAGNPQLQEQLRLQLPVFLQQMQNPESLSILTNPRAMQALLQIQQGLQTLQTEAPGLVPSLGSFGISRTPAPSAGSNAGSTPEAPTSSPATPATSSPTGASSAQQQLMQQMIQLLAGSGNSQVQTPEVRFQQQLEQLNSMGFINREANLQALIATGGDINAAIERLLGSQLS
UniProt Q8NBZ7: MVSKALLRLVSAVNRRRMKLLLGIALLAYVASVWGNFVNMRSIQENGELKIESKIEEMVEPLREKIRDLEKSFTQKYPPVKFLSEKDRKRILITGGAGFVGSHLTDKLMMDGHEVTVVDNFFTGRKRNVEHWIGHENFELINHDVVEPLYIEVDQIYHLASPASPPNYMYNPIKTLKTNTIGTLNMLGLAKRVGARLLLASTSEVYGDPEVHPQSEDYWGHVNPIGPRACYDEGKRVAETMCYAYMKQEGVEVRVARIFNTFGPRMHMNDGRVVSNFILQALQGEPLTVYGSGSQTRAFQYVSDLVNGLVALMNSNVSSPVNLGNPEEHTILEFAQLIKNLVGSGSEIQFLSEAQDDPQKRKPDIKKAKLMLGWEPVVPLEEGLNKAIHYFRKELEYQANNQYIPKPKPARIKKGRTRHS
UniProt P54578: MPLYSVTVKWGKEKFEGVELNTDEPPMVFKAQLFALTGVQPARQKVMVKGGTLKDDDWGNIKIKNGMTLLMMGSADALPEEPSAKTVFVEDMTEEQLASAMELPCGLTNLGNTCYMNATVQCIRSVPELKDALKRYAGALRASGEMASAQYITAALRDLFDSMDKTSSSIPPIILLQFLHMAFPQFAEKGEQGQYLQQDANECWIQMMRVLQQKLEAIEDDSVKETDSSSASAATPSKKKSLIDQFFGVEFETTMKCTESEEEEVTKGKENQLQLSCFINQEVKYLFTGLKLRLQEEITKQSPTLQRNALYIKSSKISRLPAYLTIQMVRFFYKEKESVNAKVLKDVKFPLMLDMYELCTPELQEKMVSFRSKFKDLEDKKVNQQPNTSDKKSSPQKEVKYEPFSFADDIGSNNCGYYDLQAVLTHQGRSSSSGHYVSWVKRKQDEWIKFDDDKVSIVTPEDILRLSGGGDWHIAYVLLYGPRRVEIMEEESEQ
UniProt P11441: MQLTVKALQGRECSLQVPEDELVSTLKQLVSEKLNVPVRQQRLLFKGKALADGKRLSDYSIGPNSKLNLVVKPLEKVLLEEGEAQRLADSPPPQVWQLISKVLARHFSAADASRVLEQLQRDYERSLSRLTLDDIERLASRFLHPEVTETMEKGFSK
UniProt Q9BVJ6: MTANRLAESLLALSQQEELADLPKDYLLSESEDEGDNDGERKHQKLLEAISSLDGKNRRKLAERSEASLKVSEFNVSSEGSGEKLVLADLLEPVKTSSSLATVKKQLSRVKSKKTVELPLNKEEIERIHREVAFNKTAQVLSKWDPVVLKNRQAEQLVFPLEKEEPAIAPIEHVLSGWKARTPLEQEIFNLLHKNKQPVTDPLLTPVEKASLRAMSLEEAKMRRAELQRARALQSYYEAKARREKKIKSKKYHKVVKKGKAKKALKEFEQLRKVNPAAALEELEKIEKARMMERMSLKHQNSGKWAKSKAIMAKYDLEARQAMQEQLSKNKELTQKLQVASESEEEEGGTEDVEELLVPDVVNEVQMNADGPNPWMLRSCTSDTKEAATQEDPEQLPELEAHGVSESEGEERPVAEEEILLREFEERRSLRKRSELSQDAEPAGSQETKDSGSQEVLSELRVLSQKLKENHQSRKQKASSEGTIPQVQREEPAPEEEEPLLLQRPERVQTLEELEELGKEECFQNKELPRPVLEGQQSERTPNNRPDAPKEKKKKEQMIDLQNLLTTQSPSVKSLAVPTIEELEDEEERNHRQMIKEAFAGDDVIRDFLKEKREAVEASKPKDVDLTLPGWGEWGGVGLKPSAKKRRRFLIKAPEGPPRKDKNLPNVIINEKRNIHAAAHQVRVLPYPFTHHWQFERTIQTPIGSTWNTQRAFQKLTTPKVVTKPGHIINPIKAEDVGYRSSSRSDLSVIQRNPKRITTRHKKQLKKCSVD
UniProt Q9BV40: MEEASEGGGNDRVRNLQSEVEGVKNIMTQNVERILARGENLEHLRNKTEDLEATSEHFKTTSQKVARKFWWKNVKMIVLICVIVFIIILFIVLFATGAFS
UniProt Q9BZM5, whole entry, looked up: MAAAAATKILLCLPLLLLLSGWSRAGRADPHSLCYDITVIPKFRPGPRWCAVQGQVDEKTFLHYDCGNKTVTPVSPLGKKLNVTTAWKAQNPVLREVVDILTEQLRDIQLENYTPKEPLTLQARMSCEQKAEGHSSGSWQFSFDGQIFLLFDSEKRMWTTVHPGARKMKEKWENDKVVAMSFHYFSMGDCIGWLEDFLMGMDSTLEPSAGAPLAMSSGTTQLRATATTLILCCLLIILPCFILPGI
UniProt Q92738: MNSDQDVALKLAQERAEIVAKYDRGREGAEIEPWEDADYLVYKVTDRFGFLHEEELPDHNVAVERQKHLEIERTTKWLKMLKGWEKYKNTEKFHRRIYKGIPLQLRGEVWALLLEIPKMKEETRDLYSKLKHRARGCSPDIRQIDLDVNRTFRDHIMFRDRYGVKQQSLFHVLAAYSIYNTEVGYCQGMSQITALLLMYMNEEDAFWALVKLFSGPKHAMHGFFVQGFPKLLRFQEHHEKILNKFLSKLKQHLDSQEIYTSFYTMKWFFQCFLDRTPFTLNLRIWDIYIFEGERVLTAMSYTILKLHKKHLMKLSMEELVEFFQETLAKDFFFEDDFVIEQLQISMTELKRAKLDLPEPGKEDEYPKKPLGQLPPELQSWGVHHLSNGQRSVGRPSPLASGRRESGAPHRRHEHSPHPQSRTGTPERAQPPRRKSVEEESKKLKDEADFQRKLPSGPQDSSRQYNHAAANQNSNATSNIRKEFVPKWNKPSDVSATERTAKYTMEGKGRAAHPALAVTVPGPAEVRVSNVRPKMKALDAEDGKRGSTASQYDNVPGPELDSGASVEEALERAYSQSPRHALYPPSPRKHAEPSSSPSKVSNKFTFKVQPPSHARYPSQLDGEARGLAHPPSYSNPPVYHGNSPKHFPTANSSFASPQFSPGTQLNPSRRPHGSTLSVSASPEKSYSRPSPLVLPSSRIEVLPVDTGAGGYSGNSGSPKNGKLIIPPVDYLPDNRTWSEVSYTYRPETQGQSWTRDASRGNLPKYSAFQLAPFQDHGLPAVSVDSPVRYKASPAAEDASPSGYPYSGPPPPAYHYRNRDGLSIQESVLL
UniProt P55072, whole entry, looked up: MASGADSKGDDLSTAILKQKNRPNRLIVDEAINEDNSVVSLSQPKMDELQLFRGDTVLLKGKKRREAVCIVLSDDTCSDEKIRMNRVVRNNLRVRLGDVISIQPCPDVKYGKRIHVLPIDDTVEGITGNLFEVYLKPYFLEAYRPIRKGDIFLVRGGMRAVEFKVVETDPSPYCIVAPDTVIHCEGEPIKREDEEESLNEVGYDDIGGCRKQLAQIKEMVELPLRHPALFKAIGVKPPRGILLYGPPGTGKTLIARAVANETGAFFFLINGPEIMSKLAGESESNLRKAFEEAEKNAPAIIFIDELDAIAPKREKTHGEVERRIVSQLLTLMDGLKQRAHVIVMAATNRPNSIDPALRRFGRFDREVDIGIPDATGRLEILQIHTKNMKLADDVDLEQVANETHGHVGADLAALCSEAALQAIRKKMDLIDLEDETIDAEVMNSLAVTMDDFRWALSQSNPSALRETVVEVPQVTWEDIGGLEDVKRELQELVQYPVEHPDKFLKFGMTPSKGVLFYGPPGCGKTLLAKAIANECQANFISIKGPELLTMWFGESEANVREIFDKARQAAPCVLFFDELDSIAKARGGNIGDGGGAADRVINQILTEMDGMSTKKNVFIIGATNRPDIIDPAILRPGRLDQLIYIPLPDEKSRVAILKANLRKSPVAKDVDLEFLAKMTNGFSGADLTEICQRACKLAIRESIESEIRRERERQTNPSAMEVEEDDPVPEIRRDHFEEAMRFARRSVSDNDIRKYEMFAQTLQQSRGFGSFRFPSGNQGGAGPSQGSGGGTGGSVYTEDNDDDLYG
UniProt O94763, whole entry, looked up: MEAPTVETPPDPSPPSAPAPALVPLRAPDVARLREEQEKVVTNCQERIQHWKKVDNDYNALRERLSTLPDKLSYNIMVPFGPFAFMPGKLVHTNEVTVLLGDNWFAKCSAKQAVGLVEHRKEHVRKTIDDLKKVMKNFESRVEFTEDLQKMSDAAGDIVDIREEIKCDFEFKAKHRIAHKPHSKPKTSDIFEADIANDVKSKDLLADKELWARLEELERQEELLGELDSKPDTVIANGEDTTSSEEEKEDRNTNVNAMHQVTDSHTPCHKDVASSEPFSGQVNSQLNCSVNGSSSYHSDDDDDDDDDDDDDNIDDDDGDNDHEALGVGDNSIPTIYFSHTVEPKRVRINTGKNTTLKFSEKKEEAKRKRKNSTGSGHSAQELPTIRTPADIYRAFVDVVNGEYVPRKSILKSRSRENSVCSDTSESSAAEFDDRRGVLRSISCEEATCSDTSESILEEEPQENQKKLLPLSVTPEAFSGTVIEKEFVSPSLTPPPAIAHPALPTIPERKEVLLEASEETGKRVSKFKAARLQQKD
UniProt Q9Y5Z9: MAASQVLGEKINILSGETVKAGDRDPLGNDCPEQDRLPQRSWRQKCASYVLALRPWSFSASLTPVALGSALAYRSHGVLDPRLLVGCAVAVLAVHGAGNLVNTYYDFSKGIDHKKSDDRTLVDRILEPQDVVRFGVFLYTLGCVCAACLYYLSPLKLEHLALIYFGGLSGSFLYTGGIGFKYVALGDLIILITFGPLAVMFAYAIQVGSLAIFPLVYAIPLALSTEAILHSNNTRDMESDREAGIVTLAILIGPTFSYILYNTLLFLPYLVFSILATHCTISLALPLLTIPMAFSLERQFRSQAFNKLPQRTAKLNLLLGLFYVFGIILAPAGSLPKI

[2] = compound: CC1=C(C=C(C=C1)NC(=O)C2=CC(=CC=C2)N(C)C)NC(=O)C3=CC=C(C=C3)O
How it was run: as §1

[3] = compound: CC1=CC=C(C=C1)SC2=C3C=C(SC3=CN=C2)C(=O)N
How it was run: as §1

[4] = compound: CC1=NC(=CC=C1)C2=C(N=C(N2)C(C)(C)C)C3=CC4=NC=CN=C4C=C3
How it was run: as §1

Nexturastat A = compound: CCCCN(Cc1ccc(C(=O)NO)cc1)C(=O)Nc1ccccc1 [Nexturastat A]
How it was run: as §1

vemurafenib = compound: CCCS(=O)(=O)Nc1ccc(F)c(C(=O)c2c[nH]c3ncc(-c4ccc(Cl)cc4)cc23)c1F [vemurafenib]
How it was run: as §1

[5] = compound: CCCS(=O)(=O)Nc1ccc(F)c(C(=O)c2c[nH]c3ncc(Cl)cc23)c1F
How it was run: as §1

[6] = compound: CCCc1cc(C)[nH]c(=O)c1CNC(=O)c1cc(-c2ccnc(N3CCN(C)CC3)c2)cc2c1cnn2C(C)C
How it was run: as §1

givinostat = compound: CCN(CC)Cc1ccc2cc(COC(=O)Nc3ccc(C(=O)NO)cc3)ccc2c1 [givinostat]
How it was run: as §1

barasertib = compound: CCN(CCCOc1ccc2c(Nc3cc(CC(=O)Nc4cccc(F)c4)[nH]n3)ncnc2c1)CCOP(=O)(O)O [barasertib]
How it was run: as §1

Measured: log2 fold change

UBQLN2 (UniProt Q9UHD9)
inactive: [1] 0.007 | [2] -0.003 | [3] 0.023 | [4] -0.005 | Nexturastat A 0.038 | vemurafenib 0.094 | [5] 0.038 | [6] -0.085 | givinostat -0.004 | barasertib -0.008

UGGT2 (UniProt Q9NYU1)
inactive: [1] -0.08 | [2] -0.057 | [3] -0.101 | [4] 0 | Nexturastat A 0.002 | vemurafenib -0.137 | [5] -0.106 | [6] -0.096 | givinostat 0 | barasertib -0.033

VAPA (UniProt Q9P0L0)
inactive: [1] -0.013 | [2] -0.059 | [3] 0.01 | [4] 0.026 | Nexturastat A -0.162 | vemurafenib -0.003 | [5] -0.014 | [6] -0.029 | givinostat -0.072 | barasertib -0.003

UBE3D (UniProt Q7Z6J8)
inactive: [1] -0.036 | [2] 0.036 | [3] -0.049 | [4] 0.01 | Nexturastat A -0.016 | vemurafenib 0.014 | [5] 0.04 | [6] 0.006 | givinostat -0.075 | barasertib 0.018

USP39 (UniProt Q53GS9)
inactive: [1] -0.038 | [2] 0.017 | [3] -0.038 | [4] -0.008 | Nexturastat A 0.114 | vemurafenib 0.013 | [5] 0.001 | [6] 0.066 | givinostat 0.005 | barasertib -0.01

UFC1 (UniProt Q9Y3C8)
inactive: [1] 0.004 | [2] -0.013 | [3] 0.036 | [4] -0.015 | Nexturastat A -0.057 | vemurafenib -0.021 | [5] -0.038 | [6] 0.147 | givinostat -0.07 | barasertib 0.011

UQCC1 (UniProt Q9NVA1)
inactive: [1] -0.001 | [2] 0.028 | [3] -0.012 | [4] 0.039 | Nexturastat A 0.123 | vemurafenib -0.009 | [5] 0.025 | [6] -0.046 | givinostat -0.025 | barasertib 0

UBQLN4 (UniProt Q9NRR5)
inactive: [1] -0.02 | [2] -0.012 | [3] 0.012 | [4] 0.03 | Nexturastat A -0.072 | vemurafenib 0.023 | [5] 0.004 | [6] -0.035 | givinostat -0.016 | barasertib -0.002

UXS1 isoform 2 (UniProt Q8NBZ7)
inactive: [1] -0.018 | [2] 0.179 | [3] -0.042 | [4] -0.009 | Nexturastat A 0.088 | vemurafenib 0.018 | [5] -0.025 | [6] 0.013 | givinostat -0.004 | barasertib -0.003

USP14 (UniProt P54578)
inactive: [1] 0.023 | [2] -0.018 | [3] 0.01 | [4] 0.034 | Nexturastat A -0.069 | vemurafenib 0.021 | [5] 0.093 | [6] 0.012 | givinostat -0.006 | barasertib 0.032

Two entries drawn at random from those above, as already listed:
UXS1 isoform 2 (UniProt Q8NBZ7)
inactive: [1] -0.018 | [2] 0.179 | [3] -0.042 | [4] -0.009 | Nexturastat A 0.088 | vemurafenib 0.018 | [5] -0.025 | [6] 0.013 | givinostat -0.004 | barasertib -0.003

USP39 (UniProt Q53GS9)
inactive: [1] -0.038 | [2] 0.017 | [3] -0.038 | [4] -0.008 | Nexturastat A 0.114 | vemurafenib 0.013 | [5] 0.001 | [6] 0.066 | givinostat 0.005 | barasertib -0.01

The listing continues:

UBL4A (UniProt P11441)
inactive: [1] 0.058 | [2] -0.021 | [3] 0.016 | [4] 0.021 | Nexturastat A -0.023 | vemurafenib 0.095 | [5] 0.078 | [6] -0.01 | givinostat -0.02 | barasertib 0.04

UHRF1BP1L (UniProt A0JNW5)
inactive: [1] -0.079 | [2] -0.031 | [3] -0.038 | [4] -0.032 | Nexturastat A -0.054 | vemurafenib -0.039 | [5] -0.033 | [6] 0.027 | givinostat -0.033 | barasertib 0

UTP14A (UniProt Q9BVJ6)
inactive: [1] 0.028 | [2] 0.008 | [3] -0.002 | [4] -0.068 | Nexturastat A 0.194 | vemurafenib -0.066 | [5] 0.028 | [6] 0.109 | givinostat 0.048 | barasertib -0.112

VAPB (UniProt O95292)
inactive: [1] 0.047 | [2] -0.017 | [3] 0.007 | [4] 0.013 | Nexturastat A -0.096 | vemurafenib 0.008 | [5] -0.029 | [6] -0.023 | givinostat 0.005 | barasertib 0.004

VAMP8 (UniProt Q9BV40)
inactive: [1] -0.02 | [2] 0.018 | [3] 0.021 | [4] 0.016 | Nexturastat A -0.024 | vemurafenib 0.014 | [5] -0.099 | [6] -0.021 | givinostat -0.006 | barasertib 0.02

UTP15 (UniProt Q8TED0)
inactive: [1] -0.063 | [2] 0 | [3] -0.05 | [4] -0.113 | Nexturastat A 0.23 | vemurafenib -0.128 | [5] -0.023 | [6] 0.085 | givinostat -0.027 | barasertib -0.141

UGGT1 (UniProt Q9NYU2)
inactive: [1] -0.001 | [2] 0.004 | [3] 0.001 | [4] -0.018 | Nexturastat A 0.014 | vemurafenib 0 | [5] 0.003 | [6] 0.024 | givinostat 0.02 | barasertib 0

UPF1 (UniProt Q92900)
inactive: [1] 0.003 | [2] 0.004 | [3] 0.025 | [4] 0.01 | Nexturastat A 0.009 | vemurafenib 0.023 | [5] 0.034 | [6] 0.009 | givinostat -0.021 | barasertib 0.026

UBQLN1 (UniProt Q9UMX0)
inactive: [1] -0.002 | [2] -0.004 | [3] 0.027 | [4] -0.022 | Nexturastat A 0.027 | vemurafenib 0.037 | [5] 0.02 | [6] 0.003 | givinostat -0.002 | barasertib 0.017

UBP1 (UniProt Q9NZI7)
inactive: [1] 0.003 | [2] -0.061 | [4] -0.142 | Nexturastat A 0.347 | vemurafenib 0.091 | [6] -0.242 | barasertib -0.014

ULBP2 (UniProt Q9BZM5)
inactive: [1] -0.085 | [2] 0.014 | [3] -0.131 | Nexturastat A -0.296 | [5] -0.394 | [6] -0.031

UNC119B (UniProt A6NIH7)
inactive: [1] 0.293 | [2] -0.057 | [3] 0.241 | [4] -0.017 | vemurafenib 0.023 | [5] -0.047 | [6] -0.108 | givinostat 0.12 | barasertib -0.029

USP6NL isoform 2 (UniProt Q92738)
inactive: [1] 0.003 | [2] -0.056 | [3] -0.159 | [4] -0.175 | Nexturastat A 0.022 | vemurafenib 0.105 | [5] 0.026 | givinostat 0.104

VCP (UniProt P55072)
inactive: [1] -0.007 | [2] 0.016 | [3] -0.012 | [4] -0.008 | Nexturastat A -0.042 | vemurafenib -0.003 | [5] -0.02 | [6] 0.007 | givinostat -0.027 | barasertib -0.018

USF2 (UniProt Q15853)
inactive: [1] 0.053 | [2] 0.021 | [3] -0.081 | [4] -0.035 | Nexturastat A 0 | vemurafenib -0.178 | [5] 0.039 | [6] 0.063 | givinostat 0.042 | barasertib 0.006

UROS (UniProt P10746)
inactive: [1] -0.01 | [2] -0.036 | [3] 0.048 | [4] -0.081 | Nexturastat A -0.109 | vemurafenib -0.005 | [5] 0.032 | [6] 0.129 | givinostat -0.034 | barasertib -0.005

UCHL3 (UniProt P15374)
inactive: [1] -0.003 | [2] -0.016 | [3] 0.076 | [4] -0.008 | Nexturastat A -0.057 | vemurafenib 0.042 | [5] 0.022 | [6] -0.024 | givinostat -0.038 | barasertib 0.028

URI1 isoform 4 (UniProt O94763)
inactive: [1] 0.134 | [2] -0.207 | [4] -0.075 | Nexturastat A -0.344 | vemurafenib -0.022 | givinostat -0.043 | barasertib -0.284

UBIAD1 (UniProt Q9Y5Z9)
inactive: [1] -0.03 | [2] 0.059 | [3] 0.004 | [4] 0.015 | vemurafenib 0.07 | [5] 0.093 | [6] 0.023 | givinostat 0.043 | barasertib 0.023
